According to the supplement of paper PMC10338343:
± gives the standard deviation. The entries are a selection whose mix differs from that of the whole data set. Many entries were measured with a wide error.

What follows are sequences tested on MILI (PIWIL2) piRISC loaded with Kctd7 piRNA (26 nt) (assay: pre-steady-state target cleavage rate (min^-1); MIWI and MILI are mouse PIWI proteins and EfPiwi is from a freshwater sponge; tags in brackets are library labels; higher = faster piRNA-guided slicing of the target). Settings: guide: Kctd7 piRNA 5'p-UGUUAAUCUCUCAGAGAAGGUGACAG; auxiliary factor: 500 nM mouse GTSF1.
Description: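 Cleave-'n-Seq: a library of target RNAs (target site embedded in constant flanks, ACAGCATTCCGCGTTAGTGATATCCG... 5' flank; DNA-blocked outside the site) at 0.1 nM was incubated with 1 nM active mouse MILI or MIWI piRISC (synthetic 5'-monophosphorylated piRNA guide) with or without 500 nM mouse GTSF1 at 33 °C for 1 min to 16 h. Uncleaved targets were sequenced and normalised to non-target controls, and the pooled three trials were fitted to a burst-and-steady-state model to give the pre-steady-state cleavage rate (min^-1; k3 is constrained to at most 1e-4). Sequence is the target site only; target names encode pairing extent (gX:gY) and contiguous / 1-mismatch / 2-mismatch / bulge geometry. Fits with R² ≤ 0 are excluded.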

Row | Sequence | pre-steady-state target cleavage rate
1 | UAGUGACUCACCUUCUGUGAGAGUUUAACA | 0.0308 ± 0.01
2 | UAGUGACAGUGGAACUCUGAGAGAUUACACA | 0.000144 ± 0.043
3 | UAGUGACAGUGGUUCUCUGAGAGAUUAAGCA | 0.000764 ± 0.0057
4 | UAGUGACUCACCUUCUCUGAGACUAUAUGA | 0.000123 ± 0.024
5 | UAGUGACAGUGCUUCUCUGAGCAGAUUAACA | 0.001 ± 0.0059
6 | UAGUGACAGUGCAUCUCUGACAGAUUAACA | 0.000161 ± 0.013
7 | UAGUGACAGUGGUUCUCUGAGAGAUCAACA | 0.000151 ± 0.015
8 | UAGUGAGUCACCUUGUCUGAGAGAAUAACA | 0.00224 ± 0.0059
9 | UAGUGACUCACCUUCUCUGAGUCAUUAUGA | 0.000127 ± 0.14
10 | UAGUGACAGUGCUUCUGACAGAGAUUAACA | 0.000405 ± 0.011
11 | UAGUGACAGUGGAUCUCUGAGAAGAUUAACA | 0.000148 ± 0.021
12 | UAGUGACAGUGGAAGUCUGAGAGAUUUAACA | 0.000255 ± 0.0085
13 | UAGUGAGUCACCUUCUCUGAGUCAUUUUGA | 0.002 ± 0.0071
14 | UAGUGACAGUGCUUCUCUGAGUCAUUAAGA | 0.000183 ± 0.017
15 | UAGUGACUCACCUUGACUGAGAGAUUUUGA | 0.000406 ± 0.035
16 | UAGUGACUCACCUUCUACUGAGAGAUUAACA | 0.00162 ± 0.0067
17 | UAGUGAGUCACCUUCUCUGAGAGUAUAACA | 0.144 ± 0.057
18 | UAGUGACAGUGCUUCACUGAGAGAAUAACA | 0.0019 ± 0.0053
19 | UAGUGACUCACCUUCUCUGAGAGUUUUACA | 0.0214 ± 0.01
20 | UAGUGACAGUGGAUCUCUGAGAGAUUAACC [g2:g17:cont:t1C] | 0.000449 ± 0.0078
21 | UAGUGUGUCUGGUUCUCUGAGAGAUUAUGA | 0.000339 ± 0.025
22 | UAGUGACAGACCUUCUCUGAGAGAUAAUGA | 0.00104 ± 0.01
23 | UAGUGACUCACCUUCUCUCAGUGAUUAACA | 0.00159 ± 0.0077
24 | UAGUGACUCAGCUUCUCUGAGAGAUAUUGA | 0.000733 ± 0.008

Some of the entries so far, as tab-separated lines.
Row	Sequence	pre-steady-state target cleavage rate
11	UAGUGACAGUGGAUCUCUGAGAAGAUUAACA	0.000148 ± 0.021
12	UAGUGACAGUGGAAGUCUGAGAGAUUUAACA	0.000255 ± 0.0085
13	UAGUGAGUCACCUUCUCUGAGUCAUUUUGA	0.002 ± 0.0071

Additional results follow.

Row | Sequence | pre-steady-state target cleavage rate
25 | UAGUGACACACCUUCUCUGUCUGAUUAACA | 0.00222 ± 0.0039
26 | UAGUGACAGUGGAACUCUGAGUAGAUUAACA | 0.000931 ± 0.017
27 | UAGUCUGUCACCUUCUCUAAGAGAUUAACA | 0.138 ± 0.0097
28 | UAGUGACUCACGUUCUCUGAGUGAUUAACA | 0.000765 ± 0.013
29 | UAGUGACAGUGGAAGAGACUGACAUUAUCA | 0.000263 ± 0.019
30 | UAGUGACUCAGGUUCUCUGAGAGAUUAUGA | 0.00103 ± 0.0056
31 | UAGUGACAGUGGAAGAGUGAGUGAUUUACA | 0.000274 ± 0.018
32 | UAGUCAGUCACCUUCUCUGAGAGAUUAAGA | 0.135 ± 0.024
33 | UAGUGACAGUGGAAGAGACACAGAAUAACA | 0.000202 ± 0.033
34 | UAGUGACUCACGAUCUCUGAGAGAUUAUGA | 0.00153 ± 0.0039
35 | UAGUGAGUCACCUUCUGACAGAGAUUAAGA | 0.00162 ± 0.0074
36 | UAGUGACACUGGUUCUCUGAGAGAUUUUGA | 0.000165 ± 0.074
37 | UAGUGACACACCUUCUCUGAGACUUAUUGA | 0.000267 ± 0.031
38 | UAGUGACUCACCUUCUCUGAGACUUAUUGA | 0.000196 ± 0.028
39 | UAGUGACACACCUUCUCUGAGUGAUUAUGA | 0.000452 ± 0.018
40 | UAGUGACAGUCCUUCUCUGAGAGAUAAUCA | 0.00111 ± 0.0057
41 | UAGUGACAGUGGAACUCUGAGACAUUUACA | 0.00137 ± 0.014
42 | UAGUGACAGUGGUUCAUCUGAGAGAUUAACA | 0.00243 ± 0.0027
43 | UAGUGACAGUCCUUCUCUGAGAGAUAAAGA | 0.000359 ± 0.016
44 | UAGUGACAGUGGAAGAGACAGAGAAUAAGA | 0.000431 ± 0.017
45 | UAGUCUGUCACCUUCUCUGAGAGAUUAAACA | 0.147 ± 0.018
46 | UAGUGACAGUGGUUCUCUGAGCGAUUAACA | 0.000301 ± 0.028
47 | UAGUGACAGUGCAAGUCUGAGAGAUUAACA | 0.00155 ± 0.0045
48 | UAGUGACAGACCUACUCUGAGAGAUUAUGA | 0.00187 ± 0.0055

Row | Sequence | pre-steady-state target cleavage rate
49 | UAGUGACUCACCUUCUGUGAGAGAUUUUGA | 0.00903 ± 0.0039
50 | UAGUGACAGUCCUUCUCUAGAGAUUAACA | 0.000972 ± 0.0089
51 | UAGUGACUCACCUUCUGUGAGAGAUAUUGA | 0.00222 ± 0.0075
52 | UAGUGACAGUGGAACUCUGAGAGUUUAACA | 0.000198 ± 0.032
53 | UAGUGACAGUGGUUCUGUGAGAGAUUUACA | 0.000972 ± 0.0085
54 | UAGUGACACUGCUUCUCUGAGAGAUUUUGA | 0.000834 ± 0.006
55 | UAGUGACAGUGGAAGAGUGAGGAGAUUAACA | < 0.0001
56 | UAGUGACAGUCCUUCUGAGAGAGAUUAUGA | 0.00138 ± 0.0048
57 | UAGUGACAGUCCUUCUCUGAGAGAUAUUCA | 0.000503 ± 0.013
58 | UAGUGACAGUGCUUGUCUGAGAGAAUAACA | 0.00262 ± 0.0037
59 | UAGUGACAGUGCUUCUCUGAGAGACUAACA | 0.00253 ± 0.0032
60 | UAGUGACAGACCUUCUCAGAGUGAUUAACA | 0.00141 ± 0.01
61 | UAGUGACAGUGGAAGACUGAGAGGAUUAACA | 0.000107 ± 0.017
62 | UAGUGACACACGUUCUCUGAGAGAUUUUGA | 0.00173 ± 0.0051
63 | UAGUGACUCACCUUCUCUGACAGAUUUUGA | 0.000576 ± 0.015
64 | UAGUGACUCACCUUCUCAGAGUGAUUAACA | 0.00346 ± 0.0036
65 | UAGUGACAGUGGAAGAGACUCUCAUUAACA | 0.000121 ± 0.02
66 | UAGUGACAGUGGAAGACUGAGACAUUUACA | 0.000125 ± 0.044
67 | UAGUGACACUCCUUCUCUGAGAGAUUUUGA | 0.00133 ± 0.0073
68 | UAGUGACAGACCUUCUCUGAGCAGAUUAACA | 0.00167 ± 0.0071
69 | UAGUCUGUCACCUUCUCUGAGAGUAAAACA | 0.0676 ± 0.024
70 | UAGUGACACACCUUCUCUGAAGAUUAACA | 0.00191 ± 0.0044
71 | UAGUGACUCUGGUUCUCUGAGAGAUUAACA | 0.000561 ± 0.016
